Values quoted from earlier work as cited in US6451813B1, “Treatment of gastroparesis in certain patient groups” (R. T. Alamo Ventures I, LLC, priority 2001, dated 2002).
Where a name gives a salt, the structure may show the parent alone. At least one compound was matched to its structure with a doubt left.

Tested on: diabetic (NOD (non obese diabetic)-diabetic and toxin induced-diabetic) mice
Conditions: cited from earlier work

## CCCc1nn(C)c2c(=O)[nH]c(-c3cc(S(=O)(=O)N4CCN(C)CC4)ccc3OCC)nc12 [Viagra, sildenafil citrate]
  effect on delayed gastric emptying: reverse delayed gastric emptying
